The supplement of paper PMC12067093, “Discovery and optimisation of a covalent ligand for TRIM25 and its application to targeted protein ubiquitination” (Chemical Science, 2025)
Some of the results follow.

Compound: CC1Cc2ccccc2N1C(=O)C1CCCN(C1)C(=O)CCl (mixture of isomers) [TRIM25 ligand 11 (diastereomer mixture)]
Experiment: probe-labelled cysteine peptide fold change vs DMSO (competition) (log2 fold change); higher = less target engagement (more negative = stronger competition)
Settings: THP-1, incubation time: 4 h
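Further: competitive chemoproteomic profiling in live THP-1 cells with an iodoacetamide desthiobiotin (IA-DTB) probe, comparing probe-labelled peptide intensities in compound-treated cells against DMSO-treated controls.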

Target	probe-labelled cysteine peptide fold change (10 µM)	probe-labelled cysteine peptide fold change (50 µM)
NBR1_Q14596_433_DVLVPCLK (UniProt Q14596)	0.00609	0.0287
MYO6_Q9UM54_362_VVAGVLHLGNIDFEEAGSTSGGCNLK (UniProt Q9UM54)	0.0603	-0.0543
MYL6_P60660-2_138_MTEEEVEMLVAGHEDSNGCINYEELVR (UniProt P60660)	-0.0834	-0.191
NAA40_Q86UY6_59_NGLNVSIECK (UniProt Q86UY6)	-0.0605	-0.0976
NAXD_Q8IW45_261_GERDILSNGQQVLVCSQEGSSR (UniProt Q8IW45)	0.0581	0.131
NAXD_Q8IW45_82_IGVVGGCQEYTGAPYFAAISALK (UniProt Q8IW45)	-0.00453	0.0133
NAPRT_Q6XQN6_48_CPFGGAFALAAGLRDCVR (UniProt Q6XQN6)	-0.259	-0.0388
NAA10_P41227_194_GNSPPSSGEACR (UniProt P41227)	0.13	-0.143
NCAPD2_Q15021_1249_MLDNFDCFGDK (UniProt Q15021)	0.0438	-0.0579
N4BP1_O75113_89_DMHCIFVGAESLFLK (UniProt O75113)	-0.0457	-0.0333
NAPRT_Q6XQN6_254_AQVWLEQVCAHLGLGVQEPHPGER (UniProt Q6XQN6)	-0.0437	0.0555
NAA10_P41227_17+21_NARPEDLMNMQHCNLLCLPENYQMK (UniProt P41227)	-0.0777	-0.156
NAPG_Q99747_193_EIENYPTCYK (UniProt Q99747)	0.0586	0.23
NCDN_Q9UBB6-2_5_ASDCEPALNQAEGR (UniProt Q9UBB6)	0.0744	-0.297
NBN_O60934_478_DEENQEMSSCK (UniProt O60934)	-0.0173	-0.269
MYO9B_Q13459_1857_CPDNSDPLTSMK (UniProt Q13459)	0.0154	0.146
MYO18A_Q92614_1164_SSCCMGLSR (UniProt Q92614)	0.0273	0.0555
NBEAL2_Q6ZNJ1_822_TLCTLGPNETAPFKPEGELHELSTR (UniProt Q6ZNJ1)	0.153	0.106
NCAPG_Q9BPX3_177_DDECPVVNAYATLIENDSNPEVR (UniProt Q9BPX3)	-0.316	-0.473
NCDN_Q9UBB6_415_EVCQLLPFLVR (UniProt Q9UBB6)	0.00407	0.163

Target	probe-labelled cysteine peptide fold change (10 µM)	probe-labelled cysteine peptide fold change (50 µM)
NCAM1_P13591_287_NDEAEYICIAENK (UniProt P13591)	0.111	0.272
NARS_O43776_342_RHLAEYTHVEAECPFLTFDDLLNR (UniProt O43776)	-0.0984	-0.0321
MYOF_Q9NZM1_1392_KPVVGQCTIER (UniProt Q9NZM1)	-0.157	-0.0509
NAGA_P17050_80_DMGYTYLNIDDCWIGGR (UniProt P17050)	-0.231	0.012
MYO9A_B2RTY4_1226_ESSVDCLK (UniProt B2RTY4)	-0.162	-0.124
NAA16_Q6N069_465_EAEEMCSK (UniProt Q6N069)	-0.103	-0.0897
NBR1_Q14596_505_TDDLTCQQEETFLLAK (UniProt Q14596)	0.0872	0.127
MYO6_Q9UM54_1236_QMELHPDKPPILLVAGKDDMEMCELNLEETGLTR (UniProt Q9UM54)	-0.0479	-0.139
NADK2_Q4G0N4_311_SSGLNLCTGTGSK (UniProt Q4G0N4)	-0.0288	-0.0319
MYO19_Q96H55_826_MACLAAK (UniProt Q96H55)	-0.113	0.0354
NAA16_Q6N069_529_HFFEITDDQFDFHTYCMR (UniProt Q6N069)	0.175	0.173
MYOF_Q9NZM1_409_KVCTNIIEK (UniProt Q9NZM1)	-0.133	0.037
NARS_O43776_511_YGTCPHGGYGLGLER (UniProt O43776)	-0.221	0.0274
NANS_Q9NR45_184_PLNPNFCFLQCTSAYPLQPEDVNLR (UniProt Q9NR45)	0.0746	0.0261
MYH9_P35579_896_LQLQEQLQAETELCAEAEELR (UniProt P35579)	-0.037	-0.0679
NAXE_Q8NCW5_158_RPNKPLFTALVTQCQK (UniProt Q8NCW5)	-0.313	-0.265
NAE1_Q13564_384_LLCSNSAFLR (UniProt Q13564)	-0.025	-0.00331
NAA40_Q86UY6_26_AAMDAVCAK (UniProt Q86UY6)	-0.0759	-0.203
NAPRT_Q6XQN6_48_CPFGGAFALAAGLR (UniProt Q6XQN6)	-0.231	0.159
